Measured data: PubChem BioAssay AID743454 (Peter MacCallum Cancer Centre, 2014)
Here is a random part of about 18,000 reagents. Over the whole deposit, 450 (2.5%) were called active. 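Single biological run; no consistent viability z cut-off exists, so the class columns, not z-scores, define the calls.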 Reagent sequences are not shown.

Aim: 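Knock-downs lowering viability or raising caspase 3/7 activity in vorinostat-treated resistant cells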 (primary screen)
System: human HCT116-VR colon cancer cells, selected for vorinostat resistance
Reagents: siRNA pool against human genes, 40 nM siRNA pool
Duration: vorinostat for 24 h, read-out about 72 h after transfection
Treatment: vorinostat at 2.5 µM final
Detection: 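Cell viability by CellTiter-Fluor and caspase 3/7 activity by luminescence, each scaled to mock wells per plate, duplicates averaged, then robust z-scored over all plates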
Scale: viability robust z-score: higher = more viable cells than screen typical; caspase robust z-score: higher = more caspase 3/7 activity than screen typical
Call rule: 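Hits are knock-downs in viability class RV1/RV2 or caspase class CA1/CA2, excluding ones that killed cells in the no-drug cell-count arm; hits then retested with single siRNAs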

Against EMC1 (ER membrane protein complex subunit 1), the values are viability hit class no change; caspase hit class no change; viability robust z-score 1.77; caspase robust z-score 2.68; inactive. For SLTM (SAFB like transcription modulator), the entry reads viability hit class no change; caspase hit class no change; viability robust z-score -0.2; caspase robust z-score -0.53; inactive. ANKFY1 (ankyrin repeat and FYVE domain containing 1) gave viability hit class no change; caspase hit class no change; viability robust z-score -1.41; caspase robust z-score 1.7; inactive. Silencing of LTA4H (leukotriene A4 hydrolase) resulted in: viability hit class no change; caspase hit class no change; viability robust z-score 0.2; caspase robust z-score 1.23; inactive. After knock-down of GDNF (glial cell derived neurotrophic factor), the record shows viability hit class no change; caspase hit class no change; viability robust z-score 0.94; caspase robust z-score -0.56; inactive. Silencing of STRIP2 (striatin interacting protein 2) resulted in: viability hit class no change; caspase hit class no change; viability robust z-score 0.76; caspase robust z-score 1.82; inactive.

Knock-down of ZNF71 (zinc finger protein 71) came out at: viability hit class no change; caspase hit class no change; viability robust z-score -0.56; caspase robust z-score 3.82; inactive. ZNF205 (zinc finger protein 205) gave viability hit class no change; caspase hit class no change; viability robust z-score 0.08; caspase robust z-score 0.87; inactive. Knock-down of PPP1R17 (protein phosphatase 1 regulatory subunit 17) resulted in: viability hit class no change; caspase hit class no change; viability robust z-score -0.4; caspase robust z-score -1.52; inactive. DPPA3 (developmental pluripotency associated 3) scored viability hit class no change; caspase hit class no change; viability robust z-score 1.5; caspase robust z-score -0.68; inactive. Knock-down of MTERF2 (mitochondrial transcription termination factor 2) gave: viability hit class no change; caspase hit class no change; viability robust z-score 0.3; caspase robust z-score 3.56; inactive. Knock-down of OR4C3 (olfactory receptor family 4 subfamily C member 3) resulted in: viability hit class no change; caspase hit class no change; viability robust z-score 0.45; caspase robust z-score -0.07; inactive.

With knock-down of CERS5 (ceramide synthase 5), the record shows viability hit class no change; caspase hit class no change; viability robust z-score 0.64; caspase robust z-score -1.21; inactive. Against MRPL24 (mitochondrial ribosomal protein L24), the values are viability hit class no change; caspase hit class no change; viability robust z-score -0.46; caspase robust z-score -0.5; inactive. Against NPB (neuropeptide B), the entry reads viability hit class no change; caspase hit class no change; viability robust z-score 1.15; caspase robust z-score -0.13; inactive. With knock-down of OIP5 (Opa interacting protein 5), the screen gave viability hit class no change; caspase hit class no change; viability robust z-score 1.3; caspase robust z-score 0.02; inactive. Against GTPBP1 (GTP binding protein 1) the deposit lists viability hit class no change; caspase hit class no change; viability robust z-score -1.03; caspase robust z-score 1.28; inactive. TUBA8 (tubulin alpha 8) gave viability hit class no change; caspase hit class no change; viability robust z-score -0.32; caspase robust z-score -0.84; inactive.

After knock-down of PAH (phenylalanine hydroxylase), the record shows viability hit class no change; caspase hit class no change; viability robust z-score 1.51; caspase robust z-score -0.66; inactive. Knock-down of TRPV3 gave: viability hit class no change; caspase hit class no change; viability robust z-score -0.86; caspase robust z-score 3.06; inactive. Silencing of KLHL35 (kelch like family member 35) gave: viability hit class no change; caspase hit class no change; viability robust z-score -2.52; caspase robust z-score -0.62; inactive. RTP5 (receptor transporter protein 5 (putative)) gave viability hit class no change; caspase hit class no change; viability robust z-score -0.27; caspase robust z-score -0.47; inactive. Against NAA38 (N-alpha-acetyltransferase 38, NatC auxiliary subunit), the entry reads viability hit class no change; caspase hit class no change; viability robust z-score 0.02; caspase robust z-score 0.92; inactive. For LDLRAD1 (low density lipoprotein receptor class A domain containing 1), the entry reads viability hit class no change; caspase hit class no change; viability robust z-score -0.24; caspase robust z-score -0.13; inactive.

With knock-down of H2AC12 (H2A clustered histone 12), the screen gave viability hit class no change; caspase hit class no change; viability robust z-score 0.74; caspase robust z-score -1.21; inactive. Depletion of CALD1 (caldesmon 1) resulted in: viability hit class no change; caspase hit class no change; viability robust z-score -0.32; caspase robust z-score -0.23; inactive. Depletion of KLK15 (kallikrein related peptidase 15) gave: viability hit class no change; caspase hit class no change; viability robust z-score -1.29; caspase robust z-score -0.04; inactive.

Part of the list above in another layout.
gene symbol | viability hit class | caspase hit class | viability robust z-score | caspase robust z-score | activity call
GDNF (glial cell derived neurotrophic factor) | no change | no change | 0.94 | -0.56 | inactive
STRIP2 (striatin interacting protein 2) | no change | no change | 0.76 | 1.82 | inactive
